Results on four substances are retold here after article PMC5584925.

Sequences of proteins named here, by UniProt entry; tags and fusion partners are left off.
UniProt Q14974: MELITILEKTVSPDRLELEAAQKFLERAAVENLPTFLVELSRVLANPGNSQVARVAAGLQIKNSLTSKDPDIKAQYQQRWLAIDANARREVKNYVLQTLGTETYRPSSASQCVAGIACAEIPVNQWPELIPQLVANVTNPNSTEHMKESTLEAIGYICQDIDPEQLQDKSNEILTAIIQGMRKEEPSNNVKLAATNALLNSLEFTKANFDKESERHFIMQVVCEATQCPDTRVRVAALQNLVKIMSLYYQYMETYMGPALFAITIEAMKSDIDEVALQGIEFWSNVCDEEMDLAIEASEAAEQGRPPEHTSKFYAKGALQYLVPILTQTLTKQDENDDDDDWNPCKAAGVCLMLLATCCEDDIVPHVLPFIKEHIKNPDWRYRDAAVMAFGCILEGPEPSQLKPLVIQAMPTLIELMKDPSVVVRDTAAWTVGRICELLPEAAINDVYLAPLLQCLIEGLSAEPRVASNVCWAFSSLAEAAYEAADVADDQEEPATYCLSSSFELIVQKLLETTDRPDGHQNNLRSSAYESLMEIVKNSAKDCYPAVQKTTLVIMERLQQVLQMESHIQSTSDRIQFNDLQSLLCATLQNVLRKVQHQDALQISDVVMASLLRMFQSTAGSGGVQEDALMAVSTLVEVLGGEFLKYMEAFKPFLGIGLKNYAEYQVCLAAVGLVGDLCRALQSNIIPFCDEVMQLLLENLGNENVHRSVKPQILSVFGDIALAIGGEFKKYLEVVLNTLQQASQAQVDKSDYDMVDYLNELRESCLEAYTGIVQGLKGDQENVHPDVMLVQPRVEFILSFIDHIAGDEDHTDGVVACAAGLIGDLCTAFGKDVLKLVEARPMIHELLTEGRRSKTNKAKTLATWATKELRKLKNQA
UniProt Q9UHB6: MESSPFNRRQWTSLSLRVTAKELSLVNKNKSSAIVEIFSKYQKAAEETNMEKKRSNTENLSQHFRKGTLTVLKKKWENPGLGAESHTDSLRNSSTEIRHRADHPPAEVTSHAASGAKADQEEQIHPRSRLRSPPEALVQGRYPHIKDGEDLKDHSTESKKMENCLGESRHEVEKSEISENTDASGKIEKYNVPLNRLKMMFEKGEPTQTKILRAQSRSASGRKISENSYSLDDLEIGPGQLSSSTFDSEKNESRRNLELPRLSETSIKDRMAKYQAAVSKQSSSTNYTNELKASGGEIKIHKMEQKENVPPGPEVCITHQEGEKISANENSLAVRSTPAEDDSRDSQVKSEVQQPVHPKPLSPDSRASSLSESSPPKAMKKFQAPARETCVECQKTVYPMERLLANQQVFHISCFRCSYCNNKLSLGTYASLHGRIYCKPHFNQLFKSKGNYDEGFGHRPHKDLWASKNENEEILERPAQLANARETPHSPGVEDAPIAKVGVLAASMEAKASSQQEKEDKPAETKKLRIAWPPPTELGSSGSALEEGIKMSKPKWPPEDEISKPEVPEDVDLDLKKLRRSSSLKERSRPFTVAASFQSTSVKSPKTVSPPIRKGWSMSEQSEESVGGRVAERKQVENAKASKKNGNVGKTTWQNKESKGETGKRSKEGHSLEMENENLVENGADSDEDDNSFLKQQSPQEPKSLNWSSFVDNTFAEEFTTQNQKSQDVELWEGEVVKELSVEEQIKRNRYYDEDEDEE
UniProt O43795: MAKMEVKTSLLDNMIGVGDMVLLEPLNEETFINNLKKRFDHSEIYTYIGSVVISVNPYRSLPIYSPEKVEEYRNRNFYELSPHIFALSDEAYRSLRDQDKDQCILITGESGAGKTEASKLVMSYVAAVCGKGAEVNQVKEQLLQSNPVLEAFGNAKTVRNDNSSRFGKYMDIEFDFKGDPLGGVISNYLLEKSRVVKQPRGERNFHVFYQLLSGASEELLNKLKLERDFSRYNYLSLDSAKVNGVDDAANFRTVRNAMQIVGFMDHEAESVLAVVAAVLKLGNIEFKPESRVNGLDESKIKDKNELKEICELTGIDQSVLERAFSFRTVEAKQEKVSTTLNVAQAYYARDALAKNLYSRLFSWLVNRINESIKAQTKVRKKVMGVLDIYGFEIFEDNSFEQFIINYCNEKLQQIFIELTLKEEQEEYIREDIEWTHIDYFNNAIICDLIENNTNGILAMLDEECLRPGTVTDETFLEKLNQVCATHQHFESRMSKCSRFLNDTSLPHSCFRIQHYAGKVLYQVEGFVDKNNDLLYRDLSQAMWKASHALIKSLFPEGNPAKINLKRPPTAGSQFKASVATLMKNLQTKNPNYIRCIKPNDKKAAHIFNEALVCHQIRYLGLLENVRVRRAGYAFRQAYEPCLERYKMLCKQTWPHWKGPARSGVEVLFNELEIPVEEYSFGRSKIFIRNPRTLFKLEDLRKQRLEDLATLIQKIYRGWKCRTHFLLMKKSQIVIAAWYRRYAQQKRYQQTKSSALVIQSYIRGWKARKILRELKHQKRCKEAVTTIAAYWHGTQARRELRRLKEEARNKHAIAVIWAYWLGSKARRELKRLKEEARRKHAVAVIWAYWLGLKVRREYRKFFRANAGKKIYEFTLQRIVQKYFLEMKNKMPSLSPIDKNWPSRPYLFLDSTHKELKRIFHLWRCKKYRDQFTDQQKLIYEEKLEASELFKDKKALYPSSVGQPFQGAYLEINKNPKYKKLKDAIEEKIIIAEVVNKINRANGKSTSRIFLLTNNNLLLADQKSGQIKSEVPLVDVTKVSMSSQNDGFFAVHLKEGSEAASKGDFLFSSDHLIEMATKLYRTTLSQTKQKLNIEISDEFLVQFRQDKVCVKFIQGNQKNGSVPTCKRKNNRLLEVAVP

No constants are given. Whether binding was seen depends on the method and setting. In cells and extracts the contact can be indirect. Here binding means that the protein was enriched with, or labelled near, the bait; the list need not be complete. Sequences can lack the tags named with a protein.

Assay [1] has as its target HA-tagged GST-POM121C (801–987) (human) (UniProt A8CG34). The assay is described as follows: affinity purification with mass spectrometry; GST pull-down from HEK293 cells stably expressing GST-POM121C (801–987), SDS-PAGE, silver staining, three gel portions analysed by LC-nESI-MS/MS.
Assay [2] shares this target. Kind of assay: affinity purification with mass spectrometry.

For the substance Angiomotin (from UniProt Q4VCS5 1-1084), the binding result in assay [1] is “binds”.
Turning to “Importin subunit beta-1 (KPNB1) (from UniProt Q14974 1-876)”, the binding entry in assay [2] is recorded as “binds”.
The same measure, in the same setting: in the case of “LIM domain and actin-binding protein 1 (from UniProt Q9UHB6 1-759)” it was “binds”; in that of Myosin-Ib (from UniProt O43795 1-1136), “binds”.
